Results taken from article PMC6412477.
No constants are given. Whether binding was seen depends on the method and setting. Binding seen in cells or lysates may run through a third protein. Some binding calls cover weakened binding; strength is not graded here.

T1: Fetuin-A (Alpha-2-HS-glycoprotein, mouse) (mouse (endogenous in M2-10B4, MC3T3-E1-derived OS, Balb/c tibia)) (UniProt P29699)
T1 sequence: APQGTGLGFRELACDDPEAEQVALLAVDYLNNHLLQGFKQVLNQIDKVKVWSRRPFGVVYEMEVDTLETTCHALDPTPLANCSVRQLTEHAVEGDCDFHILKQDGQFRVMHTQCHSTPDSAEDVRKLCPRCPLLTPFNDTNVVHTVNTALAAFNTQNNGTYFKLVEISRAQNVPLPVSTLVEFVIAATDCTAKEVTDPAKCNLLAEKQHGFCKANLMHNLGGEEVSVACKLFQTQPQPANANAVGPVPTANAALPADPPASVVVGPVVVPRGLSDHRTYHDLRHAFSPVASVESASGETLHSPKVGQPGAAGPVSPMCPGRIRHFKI

T2: Fetuin-A (Alpha-2-HS-glycoprotein, human) (human (endogenous in primary ADMSC, CBMSC, BMMSC and L88/5)) (UniProt P02765)
T2 sequence: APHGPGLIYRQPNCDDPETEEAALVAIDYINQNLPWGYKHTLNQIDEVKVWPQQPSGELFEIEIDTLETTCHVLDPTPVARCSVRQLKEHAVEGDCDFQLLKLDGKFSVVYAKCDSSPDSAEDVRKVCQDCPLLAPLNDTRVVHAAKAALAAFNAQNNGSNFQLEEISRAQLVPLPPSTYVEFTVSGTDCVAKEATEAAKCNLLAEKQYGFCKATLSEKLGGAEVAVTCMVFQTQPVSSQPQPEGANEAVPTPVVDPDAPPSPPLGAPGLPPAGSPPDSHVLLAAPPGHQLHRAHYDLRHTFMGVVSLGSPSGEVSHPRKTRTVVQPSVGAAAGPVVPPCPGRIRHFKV

B1: Fibroblast growth factor 23 (mouse) (protein, UniProt Q9EPC2 25-251)
chain: YPDTSPLLGSNWGSLTHLYTATARTSYHLQIHRDGHVDGTPHQTIYSALMITSEDAGSVVITGAMTRRFLCMDLHGNIFGSLHFSPENCKFRQWTLENGYDVYLSQKHHYLVSLGRAKRIFQPGTNPPPFSQFLARRNEVPLLHFYTVRPRRHTRSAEDPPERDPLNVLKPRPRATPVPVSCSRELPSAEEGGPAASDPLGVLRRGRGDARGGAGGADRCRPFPRFV
B2: Fibroblast growth factor 23 (human) (protein, UniProt Q9GZV9 25-251)
chain: YPNASPLLGSSWGGLIHLYTATARNSYHLQIHKNGHVDGAPHQTIYSALMIRSEDAGFVVITGVMSRRYLCMDFRGNIFGSHYFDPENCRFQHQTLENGYDVYHSPQYHFLVSLGRAKRAFLPGMNPPPYSQFLSRRNEIPLIHFNTPIPRRHTRSAEDDSERDPLNVLKPRARMTPAPASCSQELPSAEDNSPMASDPLGVVRGGRVNTHAGGTGPEGCRPFAKFI

How the values were obtained:
[1] = target: T1, Fetuin-A (Alpha-2-HS-glycoprotein, mouse) (mouse (endogenous in M2-10B4, MC3T3-E1-derived OS, Balb/c tibia)); assay: proximity ligation; Duolink in situ on mouse tibial bone tissue (Balb/c), fixed in PFA; DAPI for the cells; negative control: one antibody omitted
[2] = target: T1, Fetuin-A (Alpha-2-HS-glycoprotein, mouse) (mouse (endogenous in M2-10B4, MC3T3-E1-derived OS, Balb/c tibia)); assay: proximity ligation; Duolink in situ on cultured cells fixed in PFA (M2-10B4, OS, primary ADMSC, CBMSC, BMMSC), anti-FGF23 and anti-Alpha-2-HS-glycoprotein overnight at 4 °C, PLUS/MINUS PLA probes; at T0 and during osteogenic induction up to T10; negative control: one antibody omitted
[3] = target: T1, Fetuin-A (Alpha-2-HS-glycoprotein, mouse) (mouse (endogenous in M2-10B4, MC3T3-E1-derived OS, Balb/c tibia)); assay: condition: only natural growth of M2-10B4 without osteo-induction, T0 to T15; proximity ligation; Duolink in situ on M2-10B4 and L88/5 cells during natural growth without osteo-induction, T0 to T15 (Figures S3C and S4C)
[4] = target: T2, Fetuin-A (Alpha-2-HS-glycoprotein, human) (human (endogenous in primary ADMSC, CBMSC, BMMSC and L88/5)); assay: condition: only natural growth of L88/5 without osteo-induction, T0 to T15; proximity ligation; Duolink in situ on M2-10B4 and L88/5 cells during natural growth without osteo-induction, T0 to T15 (Figures S3C and S4C)
[5] = target: T2, Fetuin-A (Alpha-2-HS-glycoprotein, human) (human (endogenous in primary ADMSC, CBMSC, BMMSC and L88/5)); assay: proximity ligation; Duolink in situ on cultured cells fixed in PFA (M2-10B4, OS, primary ADMSC, CBMSC, BMMSC), anti-FGF23 and anti-Alpha-2-HS-glycoprotein overnight at 4 °C, PLUS/MINUS PLA probes; at T0 and during osteogenic induction up to T10; negative control: one antibody omitted

| Binder | binding [1] | binding [2] | binding [3] | binding [4] | binding [5] |
| --- | --- | --- | --- | --- | --- |
| B1 | binds | binds | no binding |  |  |
| B2 |  |  |  | no binding | binds |
